Reference: paper PMC7862700
The list shows a part of the results, in another mix than the full data. At the low end of the ranking the order means little.

The chains behind the UniProt entries cited, without tags or fusion partners. Where a name states a change or a piece, a line headed by the entry shows the natural chain unless it says otherwise.
UniProt O43186: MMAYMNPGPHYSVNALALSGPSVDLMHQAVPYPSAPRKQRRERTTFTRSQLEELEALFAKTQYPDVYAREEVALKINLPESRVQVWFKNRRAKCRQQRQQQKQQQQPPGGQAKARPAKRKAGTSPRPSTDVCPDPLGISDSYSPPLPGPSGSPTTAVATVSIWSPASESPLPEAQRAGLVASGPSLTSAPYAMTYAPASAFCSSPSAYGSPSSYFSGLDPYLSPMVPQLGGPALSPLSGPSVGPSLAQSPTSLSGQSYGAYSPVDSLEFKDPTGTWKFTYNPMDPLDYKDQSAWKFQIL

Tests used:
Assay in all cases: DAPPL (digital affinity profiling via proximity ligation, sequencing)
Conditions in all cases: 10 mM Tris-HCl pH 7.5, 50 mM NaCl, 1 mM DTT, 4% glycerol, room temperature, 30 min; GST-TFs on glutathione beads, 16-mer random dsDNA library, 0.1% …; high values mean tight binding; double strand, one strand shown; scale: fold enrichment (6-mer frequency, TF over GST control)
FEV = biological target: T1, FEV (UniProt Q99581)
T1 sequence: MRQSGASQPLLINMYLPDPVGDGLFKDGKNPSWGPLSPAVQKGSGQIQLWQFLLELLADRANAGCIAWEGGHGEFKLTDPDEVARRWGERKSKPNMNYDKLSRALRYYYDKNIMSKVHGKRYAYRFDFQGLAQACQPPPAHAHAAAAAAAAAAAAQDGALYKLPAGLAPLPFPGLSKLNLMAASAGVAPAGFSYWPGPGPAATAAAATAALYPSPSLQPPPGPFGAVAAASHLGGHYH

CRX = CRX (UniProt O43186)
ELF5 = biological target: T2, ELF5 (UniProt Q9UKW6-2)
T2 sequence: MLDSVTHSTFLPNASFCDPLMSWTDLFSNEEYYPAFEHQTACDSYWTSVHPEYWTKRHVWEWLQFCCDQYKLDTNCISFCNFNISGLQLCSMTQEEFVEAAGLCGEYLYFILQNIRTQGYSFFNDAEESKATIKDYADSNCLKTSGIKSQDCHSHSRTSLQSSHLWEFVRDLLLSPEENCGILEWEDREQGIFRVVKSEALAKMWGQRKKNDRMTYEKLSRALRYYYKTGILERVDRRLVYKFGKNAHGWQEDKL

Sequence	binding signal (FEV)	binding signal (CRX)	binding signal (ELF5)
CTAGCC	0.996	0.963	0.886
TCCGAG	0.922	0.891	0.965
CAAAGT	0.943	0.918	0.97
GCCTAG	0.909	0.976	0.848
TTAGTC	0.712	1.57	0.748
CTGGTG	0.857	0.782	0.962
TCGTCG	0.885	0.781	0.851
CGCAAT	0.951	0.805	0.847
CACCTG	0.954	0.778	0.939
GACTCG	0.835	0.756	0.8
GCGTAT	0.886	0.913	0.969
TCCAGT	0.626	0.757	0.646
GTTGGT	0.799	0.703	0.905
CCCGCG	0.936	0.763	0.941
CCAACG	1.14	0.882	1.1
GTTGAA	0.849	0.73	0.836
CCCGGT	1.04	0.686	1.05
GTCAAA	0.908	0.774	0.87
TGGCGT	0.893	0.792	0.964
GTATCG	0.905	0.77	0.876
ACACGG	0.977	0.743	1.15
CAGAAC	0.888	0.895	0.905

Sequence	binding signal (FEV)	binding signal (CRX)	binding signal (ELF5)
CGTCCA	0.968	0.788	0.995
TCGAGG	0.742	0.745	0.802
TTTTCC	1.74	1.44	2.37
TGAAAG	0.999	0.987	0.908
GATAGT	0.812	0.769	0.788
TCCGCG	1.2	0.978	1.55
AACACC	1.15	0.994	1.09
CCTGGC	0.956	0.803	0.971
CACTGA	0.98	0.819	0.964
TCGATG	0.974	0.98	1.07
TTGGCG	0.974	0.812	0.917
ACGCTC	0.986	0.884	0.947
CTCCAG	1.13	1.1	1.15
TCATGA	0.985	1.07	1.05
CTTTAG	1.18	1.51	1.05
CAATAG	0.995	0.939	0.943
TGGGCG	0.796	0.661	0.904
TACGGG	0.954	0.982	0.877
GTTGGC	0.934	0.581	0.819
GCTAGG	0.904	0.854	0.906
CGCGCA	0.945	0.806	0.978
TTCGTC	1.21	1.09	1.18

An excerpt of these results, in CSV form:
Sequence,binding signal (FEV),binding signal (CRX),binding signal (ELF5)
CAGAAC,0.888,0.895,0.905
CGTCCA,0.968,0.788,0.995
TCGAGG,0.742,0.745,0.802
TTTTCC,1.74,1.44,2.37
TGAAAG,0.999,0.987,0.908
GATAGT,0.812,0.769,0.788
TCCGCG,1.2,0.978,1.55
AACACC,1.15,0.994,1.09
CCTGGC,0.956,0.803,0.971
CACTGA,0.98,0.819,0.964
TCGATG,0.974,0.98,1.07
TTGGCG,0.974,0.812,0.917
ACGCTC,0.986,0.884,0.947
CTCCAG,1.13,1.1,1.15
TCATGA,0.985,1.07,1.05
CTTTAG,1.18,1.51,1.05
CAATAG,0.995,0.939,0.943
TGGGCG,0.796,0.661,0.904
TACGGG,0.954,0.982,0.877
GTTGGC,0.934,0.581,0.819
GCTAGG,0.904,0.854,0.906
CGCGCA,0.945,0.806,0.978
TTCGTC,1.21,1.09,1.18

More results

Sequence	binding signal (FEV)	binding signal (CRX)	binding signal (ELF5)
CATAGC	0.94	0.856	0.911
CGAGTA	0.781	0.847	0.826
GACTGC	0.967	0.721	0.93
CCATGG	0.931	0.851	0.928
CCAAGA	0.919	0.943	0.916
CTGACA	1.19	0.911	1.26
AGTCTC	0.942	0.946	0.997
ATAGTC	0.895	0.974	0.899
TGGGTA	0.976	0.945	0.954
GCGAAG	0.843	0.808	0.78
AGAATG	0.907	1.09	0.979
ACTGTC	0.892	0.685	0.955
GCCCTG	0.915	0.807	0.887
GTAGCG	0.952	0.651	0.847
GGAATG	0.84	0.737	0.842
GTCTAG	0.796	0.864	0.799
GCCGAA	0.998	0.95	0.925
TGCGGC	1.02	0.861	0.985
CCGCGG	0.937	0.744	0.914
AGAACC	0.952	0.957	0.954
CCACGT	0.952	0.778	0.903
AGCACG	0.884	0.749	0.872

Sequence	binding signal (FEV)	binding signal (CRX)	binding signal (ELF5)
TGGCCG	1.22	0.83	0.957
ACTGGA	1	1.19	0.977
TCCGGG	1.36	0.632	2.39
GGTTCT	0.91	0.943	
TTTTAG	1.14	1.48	1.06
CAACCT	1.21	0.938	1.2
CGTTTG	0.982	0.794	
TAGAAT	1.04	1.83	
CGGAAG	3.68	0.478	
ACATAG	0.998	0.892	
AATTGA	1.11	1.1	
CCATCA	1.13	1.04	
ACCTGT	0.968	0.777	
GGCCTT	1.14	1.02	
TGGTCG	0.851	0.649	0.906
CAAAAG	0.93	1.02	1
TCGTTG	0.925	0.752	0.928
GTGCCT	0.969	0.821	1
ACGCAC	1.05	0.75	
GGGAAA	0.915	0.743	
CATCAG	0.864	0.77	0.862
